We go through one molecule from patent US8367389B2, “Methods, compositions and devices utilizing structurally stable cyanuric acid hydrolase” (Regents of the University of Minnesota, priority 2009, dated 2013).

The series can be described thus: Metal analysis (ICP) of the enzyme. The class given is physicochemical.

B1: cyanuric acid hydrolase from M. thermoacetica ATCC 39073: recombinant His-tagged cyanuric acid hydrolase encoded by ORF Moth—2120 of Moorella thermoacetica ATCC 39073, expressed in E. coli (protein, listed as Moorella thermoacetica)
chain: MQKVEVFRIPTASPDDISGLATLIDSGKINPAEIVAILGKTEGNGCVNDFTRGFATQSLAMYLAEKLGISREEVVKKVAFIMSGGTEGVMTPHITVFVRKDVQEPAKPGKRLAVGVAFTRDFLPEELGRMEQVNEVARAVKEAMKDAQIDDPRDVHFVQIKCPLLTAERIEDAKRRGKDVVVNDTYKSMAYSRGASALGVALALGEISADKISNEAICHDWNLYSSVASTSAGVELLNDEIIVVGNSTNSASDLVIGHSVMKDAIDADAVRAALKDAGLKFDCCPPAEELAKIVNVLAKAEAASSGTVRGRRNTMLDDSDINHTRSARAVVNAVIASVVGDPMVYVSGGAEHQGPDGGGPIAVIARV
modifications: His tag
notes: recombinant His-tagged cyanuric acid hydrolase encoded by ORF Moth—2120 of Moorella thermoacetica ATCC 39073, expressed in E. coli
On to B1, for which the “nickel content, molar metal to subunit stoichiometry” value is on record as 0.05 and the “zinc content, molar metal to subunit stoichiometry” value came out at 0.08.
